Key:
[1] = system: MES-induced seizures; assay: Maximal electroshock seizure (MES) test; assay type: in vivo; settings: TD50 rotarod / ED50 MES, mice i.p.
Description: (§1) Male Kunming mice with weights from 18 to 22 g were used in all the pharmacological experiments. The mice were housed in the standard cages with 10 each, where a controlled temperature (25°C ± 2°C) with a 12 h light/dark cycle was maintained. All animals had free access to food and water. All experiments and procedures involving animals were carried out according to the Guide for the Care and Use of Laboratory Animals (National Academies Press, Washington, D.C., United States). Approval from the local medical ethical committee was obtained before the experiment.
In the MES test, mice were subjected to ear stimulation using a 0.2 s 60-Hz 50-mA alternating current to elicit seizures. Tonic hind limb extension was considered as the seizure occurring, and the vanishing of tonic hind limb extension indicates the protection against the MES-induced seizures. Mice were injected intraperitoneally with test compounds at doses of 300, 100, and 30 mg/kg to evaluate their general anticonvulsant activity. Half and 4 h intervals were chosen to test the anti-MES activity. Based on the rough effective dose obtained in the aforementioned assay, compounds effective at the dose of 30 mg/kg were subjected to the quantitative assay to determine their median effective dose (ED50). A series of doses of the tested compounds were injected into the mice with 10 in one group.

[2] = system: PTZ-induced seizures; assay: Subcutaneous pentylenetetrazole (PTZ) test; assay type: in vivo; settings: TD50 rotarod / ED50 scPTZ, mice i.p.
Description: as §1
In the PTZ test, mice were subcutaneously administered with PTZ at the dose of 85 mg/kg. At this dose, mice can be elicited a threshold seizure characterized by an episode of clonic spasms and tonic spasms. After being treated with test compounds at doses of 300, 100, and 30 mg/kg, the mice were considered protected if a single episode of clonic spasms of more than 5 s duration was not obtained. The quantitative anticonvulsant activity (ED50) in the PTZ model was determined and calculated with the same method described in the MES test.

[3] = Neurotoxicity screening (rotarod test); settings: male, Kunming, mouse, in vivo, ip, mice, 95% confidence interval in brackets
Description: as §1
The rotarod test was used to evaluate the neurotoxicity of the synthesized compounds. Before the formal experiments, mice were trained to climb on a rotating rod of diameter 3.2 cm with the rotation speed of 10 rpm. Test compounds in the three doses were intraperitoneally injected into the trained mice. […] The rough neurotoxic dose was obtained in which mice cannot maintain equilibrium on the rod for at least 1 min. The quantitative neurotoxic dose (TD50) of the test compounds was measured and calculated with the same method described in the MES test.

CN1C(=O)CN=C(c2ccccc2)c2cc(Cl)ccc21 [Diazepam, reference compound]
PI MES, protective index (TD50/ED50) [1]: 0.33 | PI scPTZ, protective index (TD50/ED50) [2]: 6.6 | TD50 at 30 min [3]: 3.3 mg/kg
